Conjugation yield data for two substances are collected here from US20190375837A1 (priority 2017, published 2019).

This data set in a line: general procedure: Fmoc solid-phase peptide synthesis; H-Cys(Trt)-2-CT-polystyrene resin (RAPP Polymere), pre-loaded; HATU, DIPEA. The following applies: conjugation step.

In turn, AAZ*-ValCit-MMAE showed a conjugation yield of 50.8% yield. The substance NH2^+-ValCit-MMAE Negative Control had a conjugation yield of 56.4% yield.
